Experimental data from patent US20210032205A1, “HETEROARYL SULFONAMIDE COMPOUND AND FORMULATION FOR CONTROLLING HARMFUL ORGANISMS” (Nippon Soda Co., Ltd., priority 2018, published 2021).
Some of these results come from one statement about several compounds together.

Experiments:
Meloidogyne incognita = assay: Efficacy test against Meloidogyne incognita (club root formation suppression test); format: in vivo; details: 200 ppm, 5 ml soil irrigation; cucumber; 200 eggs inoculated; after 14 days; 25° C.
Mythimna separata = assay: Efficacy test against Mythimna separata (artificial feed); format: in vivo; details: second-instar larvae; 1 μl of 5% emulsion (I) in 0.8 g artificial feed; 5 days at 25° C.
Experimental: Five parts of the compound of the present invention, 93.6 parts of dimethylformamide and 1.4 parts of a polyoxyethylene alkyl aryl ether were mixed together and dissolved to obtain an emulsion (I) containing 5% of the active ingredient.
An emulsion (II) containing 0% of an active ingredient was prepared in the same method as that described above, with the exception that 5 parts of the compound of the present invention was not mixed and dissolved.
The mortality rate was calculated using the following equation.
Mortality rate (%)=(number of dead insects/number of test insects)×100
First, 0.8 g of an artificial feed (Insecta LFS, manufactured by Nosan Corporation) and 1 μl of the emulsion (I) were mixed thoroughly, and 0.2 g of the resulting mixture was placed in each of the treatment areas of a plastic test container (volume: 1.4 ml) to complete preparation of a test feed. Two second-instar larvae of Mythimna separata were inoculated into each treatment area, and the plastic test container was sealed with a plastic lid. The sealed container was placed for 5 days in a thermostatic chamber at 25° C. Subsequently, the mortality rate and the amount of feed consumed were checked. In addition, a test for a control area was carried out under the same conditions as those described above, with the exception of replacing the emulsion (I) with the emulsion (II). The test was repeated in both cases.

Row | Compound | club root formation suppression ratio against Meloidogyne incognita (Meloidogyne incognita) [%] | amount of feed consumed, relative to the amount of feed consumed in the control (Mythimna separata) [%]
1 | O=C(Nc1ccc(C(F)(F)F)cc1)c1cnc(Cl)cc1NS(=O)(=O)C(F)(F)F [Compound A-1, 6-chloro-N-[4-(trifluoromethyl)phenyl]-4-(trifluoromethylsulfonylamino)pyridine-3-carboxamide] | ≥ 80 | ≤ 10
2 | O=C(Nc1ccc(C(F)(F)F)cc1)c1ncc(C(F)(F)F)cc1NS(=O)(=O)C(F)(F)F [Compound A-2] |  | ≤ 10
3 | O=C(Nc1ccc(C(F)(F)F)cc1)c1ccc(Cl)nc1NS(=O)(=O)C(F)(F)F [Compound A-4] |  | ≤ 10
4 | O=C(Nc1ccc(C(F)(F)F)cc1)c1cc(Cl)ncc1NS(=O)(=O)C(F)(F)F [Compound A-5] | ≥ 80 | ≤ 10
5 | O=C(Nc1cc(F)c(F)cc1-n1cccn1)c1sc(Cl)cc1NS(=O)(=O)C(F)(F)F [Compound A-6] |  | ≤ 10
6 | O=C(Nc1ccc(F)c(F)c1)c1cnc(Cl)cc1NS(=O)(=O)C(F)(F)F [Compound A-7] | ≥ 80 | ≤ 10
